The source of these data is the supplement of paper PMC12067093, “Discovery and optimisation of a covalent ligand for TRIM25 and its application to targeted protein ubiquitination” (Chemical Science, 2025).

Sequences of proteins named here, by UniProt entry; tags and fusion partners are left off. A change or cut given only in a name is not applied to a line headed by its entry.
UniProt Q9BXW9: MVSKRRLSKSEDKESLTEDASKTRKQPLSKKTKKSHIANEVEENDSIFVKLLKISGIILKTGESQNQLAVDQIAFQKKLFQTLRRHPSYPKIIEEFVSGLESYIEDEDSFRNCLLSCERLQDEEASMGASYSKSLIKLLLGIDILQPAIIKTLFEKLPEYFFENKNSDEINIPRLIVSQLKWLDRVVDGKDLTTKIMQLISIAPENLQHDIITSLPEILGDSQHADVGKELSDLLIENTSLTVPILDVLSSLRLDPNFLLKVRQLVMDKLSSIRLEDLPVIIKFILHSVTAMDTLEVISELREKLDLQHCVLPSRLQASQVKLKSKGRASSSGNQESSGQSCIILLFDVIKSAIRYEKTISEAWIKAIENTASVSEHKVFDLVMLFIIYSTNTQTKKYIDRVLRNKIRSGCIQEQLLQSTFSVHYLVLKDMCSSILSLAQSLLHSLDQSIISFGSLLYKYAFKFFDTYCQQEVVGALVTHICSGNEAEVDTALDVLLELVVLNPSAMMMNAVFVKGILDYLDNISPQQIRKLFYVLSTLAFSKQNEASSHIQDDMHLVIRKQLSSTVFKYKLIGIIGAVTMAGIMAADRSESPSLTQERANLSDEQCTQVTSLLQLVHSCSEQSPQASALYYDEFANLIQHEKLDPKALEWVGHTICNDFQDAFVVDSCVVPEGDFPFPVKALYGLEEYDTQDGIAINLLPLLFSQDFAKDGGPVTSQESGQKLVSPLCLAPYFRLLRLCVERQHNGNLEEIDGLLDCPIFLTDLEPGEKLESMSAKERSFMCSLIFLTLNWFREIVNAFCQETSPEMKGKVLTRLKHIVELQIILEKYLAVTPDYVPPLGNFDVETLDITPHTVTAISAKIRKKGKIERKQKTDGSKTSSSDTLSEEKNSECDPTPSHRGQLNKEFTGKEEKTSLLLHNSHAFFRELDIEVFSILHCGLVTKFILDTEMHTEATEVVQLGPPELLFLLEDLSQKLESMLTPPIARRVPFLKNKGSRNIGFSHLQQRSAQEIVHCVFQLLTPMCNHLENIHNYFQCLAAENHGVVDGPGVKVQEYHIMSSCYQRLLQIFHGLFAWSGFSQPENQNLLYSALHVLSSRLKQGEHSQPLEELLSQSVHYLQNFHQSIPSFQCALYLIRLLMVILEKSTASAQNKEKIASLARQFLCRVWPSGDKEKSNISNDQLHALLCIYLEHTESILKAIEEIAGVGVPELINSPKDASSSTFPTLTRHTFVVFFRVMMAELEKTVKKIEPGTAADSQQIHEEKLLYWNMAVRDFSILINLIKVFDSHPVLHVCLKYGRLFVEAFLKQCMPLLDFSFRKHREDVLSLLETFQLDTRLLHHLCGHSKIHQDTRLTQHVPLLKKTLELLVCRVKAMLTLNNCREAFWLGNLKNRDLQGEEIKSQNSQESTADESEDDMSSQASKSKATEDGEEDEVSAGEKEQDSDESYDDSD
UniProt P49327, whole entry, looked up: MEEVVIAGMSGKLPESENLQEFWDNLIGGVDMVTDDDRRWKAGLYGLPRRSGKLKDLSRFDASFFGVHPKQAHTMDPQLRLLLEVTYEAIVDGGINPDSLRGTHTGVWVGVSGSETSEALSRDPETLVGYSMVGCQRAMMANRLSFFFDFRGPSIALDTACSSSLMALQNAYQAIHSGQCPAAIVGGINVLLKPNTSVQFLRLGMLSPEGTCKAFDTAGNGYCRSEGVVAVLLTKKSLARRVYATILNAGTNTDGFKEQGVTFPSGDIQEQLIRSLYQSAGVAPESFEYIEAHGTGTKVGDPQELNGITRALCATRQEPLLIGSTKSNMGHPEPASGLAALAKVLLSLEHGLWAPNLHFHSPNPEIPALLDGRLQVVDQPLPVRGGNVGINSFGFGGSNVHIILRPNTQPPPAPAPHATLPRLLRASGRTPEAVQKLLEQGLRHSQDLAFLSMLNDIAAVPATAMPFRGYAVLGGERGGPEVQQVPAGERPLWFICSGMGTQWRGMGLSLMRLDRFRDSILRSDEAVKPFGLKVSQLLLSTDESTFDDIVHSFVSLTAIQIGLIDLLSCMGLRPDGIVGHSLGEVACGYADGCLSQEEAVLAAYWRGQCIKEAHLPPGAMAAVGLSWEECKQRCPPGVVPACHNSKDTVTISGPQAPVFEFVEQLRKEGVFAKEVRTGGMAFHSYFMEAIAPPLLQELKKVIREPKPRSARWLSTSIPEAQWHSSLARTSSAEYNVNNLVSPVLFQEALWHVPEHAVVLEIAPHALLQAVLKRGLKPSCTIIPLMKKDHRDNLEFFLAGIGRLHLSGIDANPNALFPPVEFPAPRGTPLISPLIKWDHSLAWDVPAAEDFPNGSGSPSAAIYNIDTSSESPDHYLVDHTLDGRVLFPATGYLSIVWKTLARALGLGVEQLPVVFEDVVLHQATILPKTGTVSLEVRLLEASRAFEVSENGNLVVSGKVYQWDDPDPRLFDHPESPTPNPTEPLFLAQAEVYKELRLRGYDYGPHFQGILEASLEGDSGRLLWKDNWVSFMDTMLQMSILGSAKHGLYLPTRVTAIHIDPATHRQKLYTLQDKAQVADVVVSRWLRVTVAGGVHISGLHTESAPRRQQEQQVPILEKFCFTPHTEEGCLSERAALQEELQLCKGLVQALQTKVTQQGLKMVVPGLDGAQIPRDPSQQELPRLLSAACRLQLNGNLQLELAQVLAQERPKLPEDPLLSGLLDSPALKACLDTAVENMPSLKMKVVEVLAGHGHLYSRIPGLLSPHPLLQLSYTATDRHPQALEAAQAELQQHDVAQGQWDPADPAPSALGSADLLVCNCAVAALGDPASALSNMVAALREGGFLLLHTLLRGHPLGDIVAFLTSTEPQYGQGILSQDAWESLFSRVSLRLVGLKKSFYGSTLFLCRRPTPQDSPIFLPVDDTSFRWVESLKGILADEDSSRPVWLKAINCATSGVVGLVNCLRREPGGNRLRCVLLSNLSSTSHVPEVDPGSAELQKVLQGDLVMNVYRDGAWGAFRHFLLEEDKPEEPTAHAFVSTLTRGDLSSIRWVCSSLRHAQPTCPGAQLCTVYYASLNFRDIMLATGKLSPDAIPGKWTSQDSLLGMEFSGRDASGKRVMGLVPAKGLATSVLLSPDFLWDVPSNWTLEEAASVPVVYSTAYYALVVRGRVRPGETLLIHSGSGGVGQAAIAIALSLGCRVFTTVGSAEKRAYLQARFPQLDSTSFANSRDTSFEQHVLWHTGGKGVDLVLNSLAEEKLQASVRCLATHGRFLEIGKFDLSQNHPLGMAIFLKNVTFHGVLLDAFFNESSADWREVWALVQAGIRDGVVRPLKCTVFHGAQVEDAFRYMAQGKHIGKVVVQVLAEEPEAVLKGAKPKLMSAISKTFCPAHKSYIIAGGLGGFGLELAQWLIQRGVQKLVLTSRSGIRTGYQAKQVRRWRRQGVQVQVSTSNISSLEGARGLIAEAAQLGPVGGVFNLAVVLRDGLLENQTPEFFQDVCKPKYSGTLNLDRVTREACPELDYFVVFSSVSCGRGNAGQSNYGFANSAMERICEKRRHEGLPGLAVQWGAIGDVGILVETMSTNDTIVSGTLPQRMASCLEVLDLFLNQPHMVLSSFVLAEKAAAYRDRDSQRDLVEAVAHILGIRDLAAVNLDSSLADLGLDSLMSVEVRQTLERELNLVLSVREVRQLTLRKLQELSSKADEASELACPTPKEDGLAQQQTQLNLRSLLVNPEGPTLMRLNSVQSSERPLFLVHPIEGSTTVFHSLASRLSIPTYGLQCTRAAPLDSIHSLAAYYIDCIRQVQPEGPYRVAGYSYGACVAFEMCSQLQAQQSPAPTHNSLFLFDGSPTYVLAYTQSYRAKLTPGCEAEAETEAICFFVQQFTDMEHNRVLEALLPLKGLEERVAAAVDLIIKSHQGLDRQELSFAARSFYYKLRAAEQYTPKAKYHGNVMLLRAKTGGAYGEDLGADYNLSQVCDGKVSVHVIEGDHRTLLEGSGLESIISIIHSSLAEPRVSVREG
UniProt Q9NX38: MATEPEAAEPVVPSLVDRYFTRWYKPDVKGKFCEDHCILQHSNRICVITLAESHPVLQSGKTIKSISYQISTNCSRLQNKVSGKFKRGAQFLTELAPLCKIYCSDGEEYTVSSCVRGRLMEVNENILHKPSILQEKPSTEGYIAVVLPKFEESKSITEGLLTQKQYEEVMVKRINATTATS
UniProt Q8TB52: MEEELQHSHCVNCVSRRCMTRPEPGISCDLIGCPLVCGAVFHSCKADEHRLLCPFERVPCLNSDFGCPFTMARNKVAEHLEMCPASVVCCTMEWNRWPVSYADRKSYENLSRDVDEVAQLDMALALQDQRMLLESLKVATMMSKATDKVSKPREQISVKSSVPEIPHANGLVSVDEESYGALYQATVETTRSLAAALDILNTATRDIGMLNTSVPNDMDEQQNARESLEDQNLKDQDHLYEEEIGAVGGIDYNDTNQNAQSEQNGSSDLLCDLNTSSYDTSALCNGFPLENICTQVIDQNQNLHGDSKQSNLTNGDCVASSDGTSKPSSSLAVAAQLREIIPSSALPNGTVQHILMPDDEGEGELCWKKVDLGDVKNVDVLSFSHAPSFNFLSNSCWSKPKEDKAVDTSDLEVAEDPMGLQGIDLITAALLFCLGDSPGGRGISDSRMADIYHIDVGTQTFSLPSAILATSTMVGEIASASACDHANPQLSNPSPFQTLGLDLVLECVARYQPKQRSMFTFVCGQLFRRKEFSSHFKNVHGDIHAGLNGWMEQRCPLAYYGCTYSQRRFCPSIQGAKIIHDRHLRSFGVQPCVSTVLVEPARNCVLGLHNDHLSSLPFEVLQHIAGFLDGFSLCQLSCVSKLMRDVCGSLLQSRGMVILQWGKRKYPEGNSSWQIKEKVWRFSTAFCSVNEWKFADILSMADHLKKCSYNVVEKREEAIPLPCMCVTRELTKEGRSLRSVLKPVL
UniProt Q9BZQ8: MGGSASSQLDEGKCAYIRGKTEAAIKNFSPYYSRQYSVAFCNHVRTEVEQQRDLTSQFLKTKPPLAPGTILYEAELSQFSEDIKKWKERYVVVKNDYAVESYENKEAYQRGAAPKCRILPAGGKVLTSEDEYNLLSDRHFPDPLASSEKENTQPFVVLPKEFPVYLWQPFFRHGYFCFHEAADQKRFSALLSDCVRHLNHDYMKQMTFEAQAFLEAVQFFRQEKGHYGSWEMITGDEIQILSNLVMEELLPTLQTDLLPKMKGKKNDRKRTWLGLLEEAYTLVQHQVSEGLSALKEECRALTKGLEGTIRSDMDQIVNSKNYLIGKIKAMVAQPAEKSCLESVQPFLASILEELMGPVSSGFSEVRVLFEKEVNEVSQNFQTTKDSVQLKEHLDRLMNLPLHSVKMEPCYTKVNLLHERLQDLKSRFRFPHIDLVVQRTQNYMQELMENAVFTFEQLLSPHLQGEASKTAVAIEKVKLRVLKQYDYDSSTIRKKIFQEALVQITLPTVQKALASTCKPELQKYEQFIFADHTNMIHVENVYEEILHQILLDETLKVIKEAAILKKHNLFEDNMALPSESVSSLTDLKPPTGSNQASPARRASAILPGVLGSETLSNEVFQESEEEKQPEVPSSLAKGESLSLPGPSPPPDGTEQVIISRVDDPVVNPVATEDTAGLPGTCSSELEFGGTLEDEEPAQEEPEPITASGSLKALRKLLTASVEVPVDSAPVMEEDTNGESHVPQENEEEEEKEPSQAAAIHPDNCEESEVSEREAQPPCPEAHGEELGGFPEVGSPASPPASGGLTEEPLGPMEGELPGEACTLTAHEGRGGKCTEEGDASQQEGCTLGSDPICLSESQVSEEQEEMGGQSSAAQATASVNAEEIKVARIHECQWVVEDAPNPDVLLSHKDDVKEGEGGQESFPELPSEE
UniProt Q86UX7, whole entry, looked up: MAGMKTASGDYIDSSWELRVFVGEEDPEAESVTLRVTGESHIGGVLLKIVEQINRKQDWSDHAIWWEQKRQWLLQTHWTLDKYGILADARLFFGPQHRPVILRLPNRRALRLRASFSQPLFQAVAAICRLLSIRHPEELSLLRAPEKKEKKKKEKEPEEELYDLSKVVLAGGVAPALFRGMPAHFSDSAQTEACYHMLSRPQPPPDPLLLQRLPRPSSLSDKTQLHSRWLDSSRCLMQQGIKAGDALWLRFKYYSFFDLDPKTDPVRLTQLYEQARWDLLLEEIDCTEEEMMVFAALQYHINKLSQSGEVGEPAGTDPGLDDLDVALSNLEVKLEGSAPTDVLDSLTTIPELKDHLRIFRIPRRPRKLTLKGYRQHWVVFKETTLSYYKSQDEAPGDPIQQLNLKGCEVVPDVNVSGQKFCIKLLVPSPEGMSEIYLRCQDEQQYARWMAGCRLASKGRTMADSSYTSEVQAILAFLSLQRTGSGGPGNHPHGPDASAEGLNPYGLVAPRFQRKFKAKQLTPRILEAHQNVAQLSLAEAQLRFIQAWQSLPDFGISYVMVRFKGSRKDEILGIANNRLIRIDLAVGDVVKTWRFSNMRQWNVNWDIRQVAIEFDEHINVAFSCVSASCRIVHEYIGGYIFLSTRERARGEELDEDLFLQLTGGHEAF

Compound in this assay: CC1Cc2ccccc2N1C(=O)C1CCCN(C1)C(=O)CCl (mixture of isomers) [TRIM25 ligand 11 (diastereomer mixture)]
Description: probe-labelled cysteine peptide fold change vs DMSO (competition) (log2 fold change); higher = less target engagement (more negative = stronger competition). The note with it: THP-1, incubation time: 4 h.

The other results are listed elsewhere or left out.
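Also: competitive chemoproteomic profiling in live THP-1 cells with an iodoacetamide desthiobiotin (IA-DTB) probe, comparing probe-labelled peptide intensities in compound-treated cells against DMSO-treated controls.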

Turning to “FANCD2_Q9BXW9_1342_LLHHLCGHSK (UniProt Q9BXW9)”, the “probe-labelled cysteine peptide fold change” value is, setting by setting: (10 µM) -0.000318; (50 µM) -0.0878.

With “FER_P16591_690_NCLVGENNVLK (UniProt P16591)”, the “probe-labelled cysteine peptide fold change” value is, setting by setting: (10 µM) 0.0304; (50 µM) 0.141.

Regarding “FASTKD5_Q7L8L6_708_NQYCYGSR (UniProt Q7L8L6)”, the “probe-labelled cysteine peptide fold change” value by setting is: (10 µM) 0.00998; (50 µM) 0.1.

As to “FAM136A_Q96C01_57_CHVPLAQAQALVTSELEK (UniProt Q96C01)”, the “probe-labelled cysteine peptide fold change” value (10 µM) is -0.121 and the “probe-labelled cysteine peptide fold change” value (50 µM) is 0.0522.

On to “FASN_P49327_1127_FCFTPHTEEGCLSER (UniProt P49327)”, for which the “probe-labelled cysteine peptide fold change” value was 0.135 (10 µM) and 0.099 (50 µM).

Regarding “FBL_P22087_99_NVMVEPHRHEGVFICR (UniProt P22087)”, the “probe-labelled cysteine peptide fold change” value was -0.0639 (10 µM) and -0.088 (50 µM).

In the case of “FCHSD2_O94868_260_TELETCQAVQNTFQFLLENSSK (UniProt O94868)”, the “probe-labelled cysteine peptide fold change” value (10 µM) came out at 0.0893 and the “probe-labelled cysteine peptide fold change” value (50 µM) stood at 0.26.

Take “FAM136A_Q96C01_114_CVDDHMHLIPTMTK (UniProt Q96C01)”: the “probe-labelled cysteine peptide fold change” value was -0.0626 (10 µM) and -0.0428 (50 µM).

Turning to “FASN_P49327_779_PSCTIIPLMK (UniProt P49327)”, the “probe-labelled cysteine peptide fold change” value (10 µM) was 0.0237 and the “probe-labelled cysteine peptide fold change” value (50 µM) was 0.144.

Take “FBXL12_Q9NXK8_155_QQDPTVLPLLECIVLDR (UniProt Q9NXK8)”: the “probe-labelled cysteine peptide fold change” value amounted to 0.171 (10 µM) and 0.18 (50 µM).

Regarding “FARSB_Q9NSD9_362_ADIIHACDIVEDAAIAYGYNNIQMTLPK (UniProt Q9NSD9)”, the “probe-labelled cysteine peptide fold change” value was determined as 0.162 (10 µM) and 0.139 (50 µM).

As for “FAM136A_Q96C01_53_QVHQCIER (UniProt Q96C01)”, the “probe-labelled cysteine peptide fold change” value by setting is: (10 µM) -0.0424; (50 µM) 0.0164.

For “FAM136A_Q96C01_82_CTMHCNDK (UniProt Q96C01)”, the “probe-labelled cysteine peptide fold change” value (10 µM) is -0.196 and the “probe-labelled cysteine peptide fold change” value (50 µM) amounted to 0.0556.

On to “FEM1B_Q9UK73_244_ADVVELLLSHADCDRR (UniProt Q9UK73)”, for which the “probe-labelled cysteine peptide fold change” value is -0.164 (10 µM) and -0.345 (50 µM).

On to “FAM206A_Q9NX38_74_SISYQISTNCSR (UniProt Q9NX38)”, for which the “probe-labelled cysteine peptide fold change” value reads like this: (10 µM) 0.025; (50 µM) -0.0191.

Turning to “FASN_P49327_1759_CLATHGR (UniProt P49327)”, the “probe-labelled cysteine peptide fold change” value came to 0.0351 (10 µM) and 0.12 (50 µM).

With “FBXO30_Q8TB52_570_FCPSIQGAK (UniProt Q8TB52)”, the “probe-labelled cysteine peptide fold change” value runs as follows: (10 µM) 0.0884; (50 µM) 0.123.

With “FBXO30_Q8TB52_725_EEAIPLPCMCVTR (UniProt Q8TB52)”, the “probe-labelled cysteine peptide fold change” value came to 0.13 (10 µM) and 0.153 (50 µM).

Turning to “FBXL12_Q9NXK8_310_GLPHCMVIVR (UniProt Q9NXK8)”, the “probe-labelled cysteine peptide fold change” value reads like this: (10 µM) -0.133; (50 µM) -0.0991.

Consider “FAM129A_Q9BZQ8_41_QYSVAFCNHVR (UniProt Q9BZQ8)”, for which the “probe-labelled cysteine peptide fold change” value was -0.0808 (10 µM) and -0.117 (50 µM).

Turning to “FARSB_Q9NSD9_151_LHQNICR (UniProt Q9NSD9)”, the “probe-labelled cysteine peptide fold change” value was -0.108 (10 µM) and -0.0522 (50 µM).

In the case of “FANCD2_Q9BXW9_893_NSECDPTPSHR (UniProt Q9BXW9)”, the “probe-labelled cysteine peptide fold change” value by setting is: (10 µM) 0.0136; (50 µM) -0.178.

In the case of “FASN_P49327_634+642_CPPGVVPACHNSK (UniProt P49327)”, the “probe-labelled cysteine peptide fold change” value (10 µM) came out at 0.0526 and the “probe-labelled cysteine peptide fold change” value (50 µM) is -0.299.

Regarding “FAR2_Q96K12_158_LEAFIHISTAYSNCNLK (UniProt Q96K12)”, the “probe-labelled cysteine peptide fold change” value by setting is: (10 µM) 0.048; (50 µM) 0.0444.

On to “FERMT3_Q86UX7_407_GCEVVPDVNVSGQK (UniProt Q86UX7)”, for which the “probe-labelled cysteine peptide fold change” value reads like this: (10 µM) -0.0427; (50 µM) -0.0064.

Regarding “FBXW5_Q969U6_503_HYNICLAR (UniProt Q969U6)”, the “probe-labelled cysteine peptide fold change” value came out at 0.0392 (10 µM) and 0.0765 (50 µM).

Take “FCHO1_O14526_113_CKEEVVSTLDAVQVLSGVSQLLPK (UniProt O14526)”: the “probe-labelled cysteine peptide fold change” value was -0.295 (10 µM) and 0.228 (50 µM).

On to “FANCL_Q9NW38_251_HPTMLPECFFLGADHVVK (UniProt Q9NW38)”, for which the “probe-labelled cysteine peptide fold change” value reads like this: (10 µM) 0.115; (50 µM) 0.0139.

For the target “FAM208B_Q5VWN6_1432_LHGTQCEK (UniProt Q5VWN6)”, the “probe-labelled cysteine peptide fold change” value runs as follows: (10 µM) -0.0874; (50 µM) -0.193.

As for “FERMT3_Q86UX7_235_CLMQQGIK (UniProt Q86UX7)”, the “probe-labelled cysteine peptide fold change” value by setting is: (10 µM) 0.0304; (50 µM) 0.000276.

As to “FDPS_P14324_204_PGVGLDAINDANLLEACIYR (UniProt P14324)”, the “probe-labelled cysteine peptide fold change” value reads like this: (10 µM) 0.293; (50 µM) 0.219.

In the case of “FDX1_P10109_152+155_LGCQICLTK (UniProt P10109)”, the “probe-labelled cysteine peptide fold change” value was -0.12 (10 µM) and -0.14 (50 µM).

Turning to “FBXO30_Q8TB52_90_VAEHLEMCPASVVCCTMEWNR (UniProt Q8TB52)”, the “probe-labelled cysteine peptide fold change” value was -0.194 (10 µM) and -0.504 (50 µM).

With “FAM192A_Q9GZU8_187_NQEPSSCK (UniProt Q9GZU8)”, the “probe-labelled cysteine peptide fold change” value reads like this: (10 µM) -0.0643; (50 µM) -0.0722.

As for “FBXL12_Q9NXK8_134_TLELHSCEISMAWLHK (UniProt Q9NXK8)”, the “probe-labelled cysteine peptide fold change” value is, setting by setting: (10 µM) 0.109; (50 µM) 0.00204.

Take “FAR1_Q8WVX9_305_NIMVYNCTTGSTNPFHWGEVEYHVISTFK (UniProt Q8WVX9)”: the “probe-labelled cysteine peptide fold change” value (10 µM) was 0.177 and the “probe-labelled cysteine peptide fold change” value (50 µM) amounted to 0.113.

“FAM129A_Q9BZQ8_763_EPSQAAAIHPDNCEESEVSER (UniProt Q9BZQ8)”: the “probe-labelled cysteine peptide fold change” value by setting is: (10 µM) 0.00176; (50 µM) -0.417.

On to “FAM208A_Q9UK61_601_SHIDTCLHAYIFRPEVYQLPICK (UniProt Q9UK61)”, for which the “probe-labelled cysteine peptide fold change” value by setting is: (10 µM) -0.0257; (50 µM) -0.066.

In the case of “FASTKD1_Q53R41_733_VDFECILDK (UniProt Q53R41)”, the “probe-labelled cysteine peptide fold change” value (10 µM) was 0.000572 and the “probe-labelled cysteine peptide fold change” value (50 µM) is -0.0254.
